# Experimental data published in the supplement of paper PMC3334620.
# The full ranking holds about 33,000 sequences; the median of “E-score (-0.5 to 0.5)” is about -0.0059, and the highest 2% start at about 0.26. The list shows a part of the results.
# Target: T1, Cin5 (UniProt P40917)
# T1 sequence: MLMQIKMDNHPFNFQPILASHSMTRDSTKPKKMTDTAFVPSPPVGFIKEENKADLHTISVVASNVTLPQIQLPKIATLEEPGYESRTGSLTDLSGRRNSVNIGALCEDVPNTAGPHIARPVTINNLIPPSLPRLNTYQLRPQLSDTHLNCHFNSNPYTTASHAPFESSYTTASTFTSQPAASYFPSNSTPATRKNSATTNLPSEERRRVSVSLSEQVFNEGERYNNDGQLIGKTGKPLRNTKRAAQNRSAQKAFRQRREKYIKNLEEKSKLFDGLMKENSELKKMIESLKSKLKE
# Experiment: PBM E-score (8-mer binding enrichment) (E-score (-0.5 to 0.5)); higher = stronger / more preferred TF binding
# Conditions: protein concentration: 100 nM; construct: GST-full length
# Method in brief: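 Each ungapped eight-base word and its reverse complement, pooled, received an E-score from the Universal PBM Analysis Suite. Underlying scans, normalised with masliner, recorded fluorescent anti-GST bound to GST-tagged yeast transcription factors. These were applied at about 100-200 nM to universal all-10-mer Agilent arrays double-stranded by primer extension.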
row,Sequence,PBM E-score
1,ATAGTCGG,-0.122
2,GGCGCGGA,-0.189
3,AGTGTGAC,-0.076
4,ACGTCCCC,-0.0955
5,ATCCTAGA,-0.0843
6,AGGGTACG,-0.111
7,ACAGTAGA,0.153
8,CCTAAACA,-0.0904
9,ATATCCAA,0.132
10,CCGAGCGC,-0.0761
11,TAGTCTAA,0.0173
12,AATTGTTC,0.175
13,TTCTCCAA,-0.0656
14,CGCTAACG,-0.0379
15,GCAAGGCC,-0.183
16,AATCGATC,0.127
17,GCAAGTAC,-0.0389
18,AAGACAAG,-0.0281
19,GAAAGGGC,-0.249
20,CTTGTCAC,-0.0969
21,CGTGGGTA,-0.138
22,CTGAGTCC,-0.27
23,AGCATGAC,0.0442
24,AGATGTGG,-0.0232
25,CACACTGA,-0.0176

row,Sequence,PBM E-score
1,ATATAGGG,-0.0167
2,GTCGCCCA,-0.283
3,GTGATGTA,0.172
4,GGGAGACC,-0.377
5,AACCCGCC,-0.0568
6,CTCACGCC,-0.0928
7,GTACAGAA,0.0148
8,GGTTAAAA,-0.0394
9,CTACTACC,0.0208
10,TGCCTTAA,-0.0943
11,ACACGTAA,0.3
12,AACCTAGG,-0.0368
13,AAACGACG,0.132
14,GCCGGGAA,-0.12
15,CAGCATCC,-0.067
16,GATCCTGA,0.0241
17,CCGAGGGC,-0.155
18,TACCCCCA,-0.299
19,CGTGCTGA,0.0279
20,AGCCTTAC,-0.241
21,CAAGATCC,0.0682
22,GAGAACTA,0.0749
23,CACCCAAG,-0.127
24,TCATAGCA,0.0458
25,CGGGGCAG,-0.117

# Not a retest: an excerpt of the list.
row,Sequence,PBM E-score
14,GCCGGGAA,-0.12
15,CAGCATCC,-0.067
16,GATCCTGA,0.0241
17,CCGAGGGC,-0.155

# (continued)

row,Sequence,PBM E-score
1,CCGACGAG,-0.151
2,CTTGAATC,-0.0191
3,CTGGAGGA,-0.281
4,CACGGCCA,-0.145
5,CCTATGCC,-0.134
6,TGCGGTAA,-0.044
7,GGAGGGGA,-0.0844
8,GCCAACAA,-0.126
9,CCAGCAAG,-0.182
10,ACCGGTCC,-0.302
11,AAGTCGTG,0.00511
12,AGCAGACC,-0.0747
13,CCTCTGTA,-0.204
14,GACTAACA,0.0659
15,GAGGTAGC,-0.174
16,ACAAAACG,0.178
17,AATAGTGT,0.254
18,CGGTCACA,-0.0126
19,ATTCTTGA,0.101
20,ATTGCCCG,-0.0833
21,GCTGATCA,0.108
22,TATTGAAA,0.257
23,AGCGCTGA,0.0972
24,CATGGCAG,-0.0392
25,CCGAGCCG,-0.0876

row,Sequence,PBM E-score
1,ATCAACCA,0.122
2,CCGGTTAC,0.0723
3,GGTCCTAC,-0.212
4,ATGATCAA,0.143
5,ATTTAATG,0.229
6,ATGTAGCC,-0.12
7,ACATTGGA,-0.0838
8,ACGAAGCT,0.00769
9,AGAGCCGC,-0.0103
10,CCGCAACA,0.0621
11,CGCATCAG,0.0136
12,CCGTTCTA,0.089
13,CGCGCCAA,0.0569
14,TGAAGGAA,0.12
15,ATATCACC,0.217
16,ACGGGTCG,0.0221
17,CTAGTGGA,-0.125
18,AATGCTAC,0.171
19,CGCATTCA,0.174
20,GTCTCTTA,0.133
21,AAGCAACG,0.138
22,AACCTAGA,-0.0229
23,GAACCGCA,0.122
24,ATGACTGA,0.0358
25,ATATACGA,0.0395

row,Sequence,PBM E-score
1,ATTCGTCC,0.254
2,CGCAGCGC,-0.138
3,AAAGTGAG,0.134
4,ATAGCGAC,-0.1
5,ACATGTCT,0.0297
6,AGAGGGCA,-0.272
7,GCGCCCAC,-0.0946
8,ACGAAACT,0.0491
9,GTCCGTAA,-0.0824
10,ATCTAGTA,0.127
11,CCGGAGAA,-0.0357
12,CGTGTGAC,-0.154
13,GCCATCCA,-0.0952
14,ATCAGGGA,-0.109
15,AAGTTGGC,-0.0247
16,ATGCTATG,0.14
17,GCTGTTCC,-0.0338
18,GAGCTTAA,-0.104
19,AGGAGTAA,0.0726
20,CTTCCACC,-0.214
21,CCGGTACG,-0.253
22,GCACTCGA,0.0449
23,CCTTGGCG,-0.283
24,CGAATAGA,-0.00721
25,ACCAGTTC,-0.0385

row,Sequence,PBM E-score
1,CATAAGCG,0.267
2,ACTTATTA,0.173
3,ACTCATTC,0.202
4,GTATATTA,0.219
5,AGGTCTAC,-0.144
6,CGCTATCC,-0.0163
7,TCTCCAAA,-0.0839
8,AAAGGCTT,-0.132
9,GATTCTTA,0.213
10,AATGTTGA,-0.014
11,TGATAGAA,0.0353
12,AAGTGCTG,-0.0829
13,ACTCTAAG,-0.0993
14,CGATTGCA,0.15
15,ACTAGTCG,-0.0452
16,CCCCTTAG,-0.275
17,CTGTCCTA,-0.141
18,AACAACCC,0.0808
19,GATTCGTA,0.15
20,CATCGAAG,0.0755
21,AATTCTGG,0.0591
22,ATTCGTGC,0.17
23,ACAAATAC,0.252
24,CGTCTCCA,0.0161
25,ATCGGGAC,-0.247

row,Sequence,PBM E-score
1,AAGGGATC,-0.0209
2,ATCCCGTA,0.165
3,CGGAGATA,0.168
4,AGTCCAGA,-0.144
5,AGGAGCTA,-0.227
6,CAGCACCG,-0.136
7,CTGAAGAC,-0.233
8,CCGAGTAA,0.0357
9,GGTCACAC,-0.305
10,ACGACTTA,-0.0557
11,GACTGCAC,-0.0947
12,TACTACGA,0.139
13,TAACCCGA,-0.0693
14,CCAGACAA,-0.141
15,TAGGGTGA,0.107
16,TCCTCTAA,-0.0789
17,CTACCCTA,-0.101
18,GGCTCGTA,0.117
19,GGCATGCA,-0.096
20,GTTTACAA,-0.00663
21,CTCATTAC,0.19
22,TCCGCCAA,-0.0134

# Random excerpt: two entries already listed.
row,Sequence,PBM E-score
9,GGTCACAC,-0.305
7,CTGAAGAC,-0.233
